The experiment can be described thus: qHTS Assay to Find Inhibitors of Chronic Active B-Cell Receptor Signaling. Particulars: ABC-DLBCL IkBa-CBG/CBR reporter, luminescence ratio (green luciferase fused to IkBa over red control in TMD8 lymphoma cells), 4 h. In short, it runs like this:
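Doxycycline induced both beetle luciferases in TMD8 lymphoma cells; IKK-driven degradation limits the IkappaBalpha-fused green signal, while red luminescence normalises for cell number and nonspecific effects. Compounds tested up to 46 uM, 4 hrs.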

Setting [1] is: measured here: CBR red luminescence, cell number.
[2] abbreviates: measured here: IkBa-CBG green luminescence.

These results are taken from PubChem BioAssay AID493014 (National Center for Advancing Translational Sciences (NCATS), 2011).

Molecules are shown by their SMILES. The list shows a part of the results. These are further read-outs of the screen, such as a control signal, another cell line or another target. No call is given for them. Most of these compounds were active or inconclusive in the main read-out, so they are no random draw. The note in brackets gives the kind of curve behind each potency; many fits are weak.

Turning to `Cc1ccc(-c2nc(SCC(=O)Nc3ccccc3OC(F)F)c3c(C)c(C(=O)O)sc3n2)cc1`, the AC50 (usually the concentration giving half of the maximal activity seen) under setting [1] was 1.78 µM [falling, full curve, poor fit].

With `CC(=O)Nc1cc(C)c2nc(NC(C)=O)sc2c1`, the AC50 under setting [1] is 3.55 µM [falling, partial curve, poor fit].

With `O=C(Nc1cccc(O)c1)c1cc(-c2ccc3c(c2)OCO3)on1`, the AC50 under setting [1] was 2.51 µM [falling, partial curve].

On to `Clc1ccc(-c2nnc3n2CCCCC3)cc1`, for which the AC50 under setting [1] was 2.31 µM [rising, partial curve, poor fit].

As to `Cc1cccnc1NC(=O)c1ccc(S(=O)(=O)N2CCCCC2)cc1`, the AC50 under setting [1] was 16.4 µM [falling, single point].

On to `COc1ccc(Cc2nnc(SCC(=O)NC3CCCC3)o2)cc1`, for which the AC50 runs as follows: under setting [1], 8.2 µM [rising, partial curve]; under setting [2], 29.1 µM [falling, single point].

Turning to `CCN1CCN(Cc2ccc(NC(=O)c3ccc(C)c(NC(=O)c4csc(-c5ccncc5)n4)c3)cc2C(F)(F)F)CC1`, the AC50 under setting [1] is 35.5 µM [falling, single point].

`COc1ccc(-c2cn(-c3ccccc3)nc2CO)cc1`: the AC50 under setting [1] was 0.282 µM [rising, full curve, poor fit].

For the compound `CC(=O)c1cccc(NC(=O)CSc2nnc3ccc(-c4ccc(F)cc4)nn23)c1`, the AC50 under setting [1] was 7.08 µM [rising, partial curve, poor fit].

Turning to `O=C(Nc1cc(S(=O)(=O)N2CCCCC2)ccc1O)c1ccccc1NS(=O)(=O)c1ccc(F)c(F)c1`, the AC50 under setting [1] was 0.116 µM [falling, full curve, poor fit].

Take `COc1cc(C(=S)N2CCCC2)ccc1OCc1ccc(C)cc1`: the AC50 under setting [1] is 35.5 µM [falling, single point].

In the case of `CCN(CC(=O)NC(C)C)Cc1nc2sc3c(c2c(=O)[nH]1)CCC3`, under setting [1], the AC50 was 32.6 µM [falling, single point].

Take `COc1ccc2c(c1)C(C)=CC(C)(C)N2S(=O)(=O)c1ccc(NC(C)=O)cc1`: under setting [2], the AC50 was 7.08 µM [falling, full curve].

For the compound `CCOC(=O)C1CCN(C(=O)COC(=O)/C=C/c2ccccc2)CC1`, the AC50 under setting [1] was 29.1 µM [falling, single point].

For `COc1ccc(OC)c(C2CC(=O)Nc3n[nH]c(-c4ccccc4)c32)c1` (configuration not stated), the AC50 under setting [1] is 31.6 µM [rising, single point] and the AC50 under setting [2] was 12.6 µM [falling, partial curve].

Take `CN(C)c1ccc(-c2nnc(-c3ccccc3F)o2)cc1`: the AC50 under setting [1] was 8.91 µM [falling, partial curve].

On to `CCn1c(/C(C#N)=C(\O)CCc2ccccc2)nc2ccccc21`, for which, under setting [1], the AC50 was 0.326 µM [rising, full curve, poor fit].

Take `O=C(NCc1ccc2c(c1)OCO2)c1ccc(CS(=O)(=O)c2ccc(Br)cc2)o1`: the AC50 under setting [1] is 29.1 µM [falling, single point].

Turning to `O=C(Nc1ccc(OC(F)F)cc1)c1ccccn1`, the AC50 under setting [1] was 6.31 µM [falling, full curve].

With `Cc1ccc(C(C)C)c(OCC(=O)NN2C(=O)c3ccccc3C2=O)c1`, the AC50 under setting [1] was 35.5 µM [rising, single point] and the AC50 under setting [2] was 35.5 µM [falling, single point].

Turning to `COc1ccc(C(C)NS(=O)(=O)Cc2ccccc2)cc1` (configuration not stated), the concentration at half-maximal activity (AC50) under setting [1] was 35.5 µM [rising, single point].

For `O=C(C1CC(c2ccc(F)cc2)=NO1)N1CCCc2ccccc21` (configuration not stated), the AC50 under setting [1] was 6.51 µM [rising, partial curve].

Regarding `c1cncc(-c2nnc3n2N=C(c2cccs2)CS3)c1`, the AC50 under setting [1] is 20.6 µM [falling, single point].

Consider `CC(=O)N1c2ccc(S(=O)(=O)NCC3CCC(C(=O)Nc4cc(C)ccn4)CC3)cc2CC1C` (configuration not stated), for which the AC50 under setting [1] is 12.6 µM [falling, single point].

For `CC1C(c2ccccc2)N(C)CCC12NC(=O)NC2=O` (configuration not stated), under setting [1], the AC50 was 23.1 µM [rising, single point].

As for `Cc1nc(/C=C/c2ccccc2)cc(/C=C/c2ccccc2)n1`, under setting [1], the AC50 was 13 µM [rising, partial curve].

As for `N=c1sccn1CC(=O)Nc1cccc2ccccc12`, the AC50 under setting [1] was 6.51 µM [falling, single point].

On to `COCC(C)n1c(C)cc(C(=O)CSc2ccc(NC(C)=O)cc2)c1C` (configuration not stated), for which the AC50 under setting [1] is 6.51 µM [rising, single point].

In the case of `c1ccc(C2=Nc3ccccc3NC(c3ccccc3)C2)cc1` (configuration not stated), the AC50 under setting [1] is 35.5 µM [falling, single point].

Regarding `c1ccc(Oc2ccc(-c3ccn[nH]3)cc2)cc1`, under setting [1], the AC50 is 0.224 µM [rising, full curve, poor fit].

For `Cc1ccc(/C=N/NC(=O)c2n[nH]c3c2CCCC3)cc1`, the AC50 is 1.41 µM [rising, full curve, poor fit] under setting [1] and 1 µM [falling, full curve] under setting [2].

For `O=C(c1ccccc1)C1CN(Cc2ccccc2)CCC1(O)c1ccccc1` (configuration not stated), under setting [1], the concentration at half-maximal activity (AC50) is 3.16 µM [rising, single point].

For the compound `COc1ccc(-n2nnnc2-c2cccc(OC)c2)cc1`, under setting [2], the AC50 is 18.4 µM [falling, single point].

Turning to `CCn1c(SCC(=O)c2ccc3c(c2)Cc2ccccc2-3)nnc1-c1ccc(N)cc1`, under setting [1], the AC50 is 14.1 µM [rising, single point].

`CCOC(=O)C1(Cc2ccccc2Cl)CCN(C(=O)CN2CCOC2=O)CC1`: under setting [1], the AC50 is 12.6 µM [rising, partial curve, poor fit].

As for `CN(Cc1ccccc1)C(=O)c1[nH]cnc1C(=O)N[C@@H](CCCCNC(=O)OC(C)(C)C)C(=O)OC(C)(C)C`, under setting [1], the half-maximal activity concentration (AC50) was 6.31 µM [rising, partial curve, poor fit].

For `O=C(Nc1ccc2nc(-c3cccs3)[nH]c2c1)c1ccco1`, under setting [2], the AC50 is 18.4 µM [rising, partial curve, poor fit].

As to `COC(=O)c1c(C(=O)OC)n(CCCN)c2ccc(C)cc12`, under setting [1], the half-maximal activity concentration (AC50) is 29.1 µM [falling, single point].

On to `COc1ccc(CC(=O)NNC(=O)c2ccc(Br)s2)cc1OC`, for which the AC50 under setting [1] was 16.4 µM [rising, partial curve].

Turning to `O=C(Cc1cccs1)Nc1nc(-c2ccc(F)cc2F)cs1`, the half-maximal activity concentration (AC50) under setting [1] is 2.06 µM [falling, partial curve, poor fit].

For the compound `C=CCNC(=S)N/N=C/c1ccc(C)s1`, the concentration at half-maximal activity (AC50) runs as follows: under setting [1], 1.78 µM [rising, full curve, poor fit]; under setting [2], 3.16 µM [falling, partial curve, poor fit].

For the compound `CC1CCCCC1Nc1ncnc2sccc12` (configuration not stated), the AC50 under setting [1] is 12.6 µM [falling, partial curve].

For `Cc1nnc(NC(=O)CSc2nnc(CC(=O)Nc3ccccc3C)n2C)s1`, the AC50 under setting [1] was 35.5 µM [rising, partial curve, poor fit].

Consider `CSc1ccc(-c2sc(Nc3ccccc3)n[n+]2-c2ccc(F)cc2)cc1`, for which, under setting [1], the AC50 is 10 µM [falling, partial curve, poor fit].

For `Clc1ccc(C[n+]2cc(-c3ccccc3)n3c2CCCCC3)c(Cl)c1`, the AC50 under setting [1] is 12.6 µM [falling, single point].

Take `O=C(COc1ccc(Cl)cc1Br)NC1CC1`: the AC50 under setting [1] is 5.17 µM [rising, partial curve, poor fit].

With `O=C(Nc1ccc(OC(F)(F)C(F)F)c(NC(=O)c2cccc(F)c2)c1)c1cccc(F)c1`, under setting [1], the AC50 is 2.06 µM [rising, partial curve].

As for `COc1cccc(NC(=O)c2ccc3c(c2)C(=O)N(CC2CCCO2)C3=O)c1` (configuration not stated), under setting [1], the AC50 was 17.8 µM [falling, partial curve, poor fit].

As for `Cc1cccc(C)c1NCc1n[nH]c(=S)n1-c1ccccc1`, the AC50 under setting [2] is 17.8 µM [falling, single point].

For `CCOC(=O)/C(=N\Nc1ncnc2ccccc12)c1ccc(C)cc1`, under setting [1], the AC50 was 14.1 µM [falling, single point].

For the compound `Cc1cc(C)c2oc(=O)cc(CN3CCCCC3)c2c1`, under setting [1], the AC50 was 11.2 µM [rising, single point].

On to `CCOC(=O)N1CCN(c2c(NCc3ccccn3)c(=O)c2=O)CC1`, for which the half-maximal activity concentration (AC50) under setting [1] is 3.66 µM [rising, partial curve, poor fit].

For `C#CCOCCOCCOCCNc1nc(N2CCN(C(=O)[C@H](CCCN=C(N)N)n3cc(C(N)[C@@H](C)CC)nn3)CC2)nc(N2CCN(C(=O)[C@H](CCCCN)n3cc([C@@H](N)[C@H](C)CC)nn3)CC2)n1` (some centres not stated), the AC50 under setting [1] was 2.06 µM [rising, full curve].

On to `COc1cc(/C=C2/C(=O)N=C(N)N2C)cc(OC)c1OC`, for which the half-maximal activity concentration (AC50) under setting [1] was 29.1 µM [rising, single point].

Turning to `CCCCc1ccc(NC(=O)COCC)cc1`, the AC50 under setting [1] was 0.366 µM [rising, full curve, poor fit].

For the compound `COc1ccc(NC(=O)Nc2ccc3c(c2)CCC3)cc1`, the AC50 under setting [1] is 3.16 µM [rising, full curve].

For `N#C/C(C(=O)N1CCOCC1)=c1/s/c(=C\c2ccccn2)c(=O)n1-c1ccccc1`, the AC50 under setting [1] was 10 µM [rising, partial curve, poor fit].

Consider `COc1ccc2[nH]c3c(=O)n(CCCCC(=O)NCCN4CCCC4)c(=S)[nH]c3c2c1`, for which the AC50 under setting [1] is 14.6 µM [falling, partial curve].

`O=C(O)c1ccccc1-c1ccccc1C(=O)Nc1ccc(-c2nc3cc(Cl)ccc3o2)cc1`: the AC50 under setting [1] is 6.31 µM [rising, partial curve, poor fit].

Turning to `NC(=O)C1CCN(c2nc(-c3ccc(F)cc3)cs2)CC1`, the AC50 under setting [1] was 29.1 µM [rising, partial curve, poor fit].

For `O=C(NCC1CCCO1)c1ccc(NC(=O)c2cccc([N+](=O)[O-])c2)cc1` (configuration not stated), the AC50 under setting [1] was 6.31 µM [rising, partial curve, poor fit].

For `O=C1NC(=O)C(CC(=O)N(Cc2ccco2)C2(C(=O)NC3CCCCC3)CCCCC2)N1` (configuration not stated), the half-maximal activity concentration (AC50) under setting [1] is 18.4 µM [rising, partial curve, poor fit].
